Source: PMC8566587, “Selection for constrained peptides that bind to a single target protein” (Nature Communications, 2021)
No constants are given. Whether binding was seen depends on the method and setting.

Chains of the proteins cited; added tags and fusions are not shown. Residues count along the entry.
UniProt Q00987, residues 17-124: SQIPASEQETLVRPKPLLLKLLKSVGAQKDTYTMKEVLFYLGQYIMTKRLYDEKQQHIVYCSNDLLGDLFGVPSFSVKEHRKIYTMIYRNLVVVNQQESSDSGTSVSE
UniProt Q9BYF1, residues 19-56: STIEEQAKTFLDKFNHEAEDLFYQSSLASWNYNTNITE

Molecular target: residues 17-124 of Mdm2 (Mdm2*) fused to σ^N-Npu^N (UniProt Q00987)
Experiment: two-hybrid

For “peptide based on the N-terminal residues 19-56 of ACE2 (ACE2α1) fused to Npu^C-σ^C (from UniProt Q9BYF1 19-56)”, the binding was “no binding”.
